For 3 substances, binding results are on record in article doi:10.1101/2025.10.13.682015.

Results are given in words; binding and its absence hold for the method and conditions named. In cells and extracts the contact can be indirect. Here binding means that the protein was enriched with, or labelled near, the bait; the list need not be complete. Where a sequence is shown, tags or fusion partners need not be part of it.

The target of the assay is T1, mimivirus L323, endogenously tagged with C-terminal 3xHA (Acanthamoeba polyphaga mimivirus).
T1 sequence: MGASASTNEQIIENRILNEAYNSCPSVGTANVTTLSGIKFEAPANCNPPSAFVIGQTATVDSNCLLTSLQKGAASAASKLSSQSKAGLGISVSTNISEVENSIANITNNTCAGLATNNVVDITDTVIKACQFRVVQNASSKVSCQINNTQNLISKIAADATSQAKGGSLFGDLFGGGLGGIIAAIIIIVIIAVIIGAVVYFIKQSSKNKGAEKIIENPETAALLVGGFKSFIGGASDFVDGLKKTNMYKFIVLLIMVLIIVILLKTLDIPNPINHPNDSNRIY
The assay is described as follows: affinity purification with mass spectrometry.

For mimivirus R486 (from UniProt Q5UQG0), the binding entry is given as “binds”.

Turning to mimivirus L775 (from UniProt Q5UPR5), the binding result is on record as “binds”.

On to mimivirus L65 (from UniProt Q5UPE0), for which the binding entry was “binds”.
